Consider one molecule from PMC5143477.

This experiment has as its target L6 TIR domain (residues 29-233), yeast two-hybrid fusions (flax) (UniProt Q40253). As to the kind of experiment: two-hybrid; yeast AH109 co-transformed with prey (GAL4-AD) and bait (GAL4-BD) vectors; growth on CSM-Trp-Leu-His + 5 mM 3-AT (HIS3 reporter).

Results are given in words; binding and its absence hold for the method and conditions named. Some results given as binding are weak or reduced against the parent protein; the word gives no strength. Where a sequence is shown, tags or fusion partners need not be part of it.

B1: L6 TIR domain (residues 29-233), yeast two-hybrid fusions (domain or fragment, UniProt Q40253 29-233)
chain: KDSIVNDDDDSTSEVDAISDSTNPSGSFPSVEYEVFLSFRGPDTREQFTDFLYQSLRRYKIHTFRDDDELLKGKEIGPNLLRAIDQSKIYVPIISSGYADSKWCLMELAEIVRRQEEDPRRIILPIFYMVDPSDVRHQTGCYKKAFRKHANKFDGQTIQNWKDALKKVGDLKGWHIGKNDKQGAIADKVSADIWSHISKENLILE
Consider B1, for which the binding result is recorded as “binds”.
